Data published in patent publication US20050176705A1, “Compounds useful in the treatment of cns disorders” (priority 2000, published 2005).
Some entries share one result that the patent states for a list of compounds.

The chains behind the UniProt entries cited, without tags or fusion partners.
UniProt P50406, whole entry: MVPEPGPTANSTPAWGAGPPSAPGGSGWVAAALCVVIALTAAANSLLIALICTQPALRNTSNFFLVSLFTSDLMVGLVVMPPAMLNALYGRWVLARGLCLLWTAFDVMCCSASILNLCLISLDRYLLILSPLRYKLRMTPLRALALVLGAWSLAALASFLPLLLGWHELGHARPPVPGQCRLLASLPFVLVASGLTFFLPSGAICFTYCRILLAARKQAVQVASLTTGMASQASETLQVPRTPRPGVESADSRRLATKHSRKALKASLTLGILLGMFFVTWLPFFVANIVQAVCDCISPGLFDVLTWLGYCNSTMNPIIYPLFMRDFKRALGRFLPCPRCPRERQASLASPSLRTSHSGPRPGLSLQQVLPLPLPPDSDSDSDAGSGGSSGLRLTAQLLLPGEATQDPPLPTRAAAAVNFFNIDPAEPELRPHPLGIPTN

Target: T1, human cloned 5-HT6 receptors (Homo sapiens, UniProt P50406)
T1 construct: expressed in transfected cells
Experiment: 5-HT6 receptor affinity (procedures outlined in WO 98/27081)
Type: binding
Conditions: procedures of WO 98/27081

For “5-Chloro-1-(2,6-dichlorobenzenesullonyl)-4-piperazin-1- yl-1H-indole trifluoroacetic acid salt [Example E76]”, the “pKi at human cloned 5-HT6 receptors” value was 8.8-9.7.
